Some of the results follow.
B1: il10ra_site1_normal_mot_HHH_b1_04514_000000156_0001_1_18_H_._HHH_b2_06451_0001_0000400042_0000001_0 (protein)
chain: SSSSSEELYEEVKKVIEEAKELFERGNPEEVERILRELLEELEELNNFAALFSVEHLARVLSSSS
B2: il10ra_site1_normal_mot_HHH_b1_05185_000000011_0001_22_39_H_._HHH_b2_02890_0002_0000300022_0000002_0 (protein)
chain: SSSSSVAERSVRFLLEAAKQIDDPEYVRLTLRFAKALARSTNNEELEEKIEEVEKELKELLSSSS
B3: il10ra_site1_normal_mot_HHH_b1_02062_000000185_0001_1_20_H_._HHH_b2_07452_0001_0000300045_0000002_0_af2pred_0001 (protein)
chain: SSSSSHTEEVLRLSREAIELLNDGNKEEAEKLVEEAQELAREGGNELLVRLLEFLEEQIKSSSSS
B4: il10ra_site1_sap_10_mot_HHH_b1_07380_000000129_0001_1_20_H_._HHH_b1_03010_0001_0000100007_0000001_0_0001 (protein)
chain: SSSSSELRHKLAEALMRAARAMFRGNPEEAEELLEEAERLAEKANDEKAKRLIEDLLRTVKSSSS
B5: il10ra_site1_sap_29_mot_1a19b20af19f20120a784029a7d8d036_0001_000000031_0001_1_14_H_._HHH_b1_00672_0001_0000200007_0000001_0_0001 (protein)
chain: SSSSSDANEEIWRLSKEALEALANGNPEEAKEILEEAIELAREANSRVLLHVLEFLEKEISSSSS
B6: il10ra_site1_normal_mot_HHH_b2_04912_000000028_0001_1_20_H_._HHH_b1_01196_0001_0000200029_0000002_0 (protein)
chain: SSSSSDAEERILRLSREAFRLLLRGNPEEARELLEEAIELAQEAGDERALRQLEELLRTNSSSSS
B7: il10ra_site1_sap_24_mot_HHH_b1_03314_af2_000000278_0001_42_55_H_._HHH_b2_05844_af2_0001_0000100003_0000002_0_0001 (protein)
chain: SSSSDRSERIYELSREIARAISDGDREEAEELIEEAEKLIEELGDRLLKFILEHLERQLNSSSSS
B8: il10ra_site1_sap_17_mot_HHH_b1_08133_000000195_0001_1_19_H_._HHH_b2_02059_0001_0000200018_0000001_0_0001 (protein)
chain: SSSSSDVEEELEEAEKLAEERGNRAALFLLRQALEALELAGDPRVREIIRSLVRIVEEELSSSSS
B9: il10ra_site1_sap_16_mot_HHH_b1_05056_000000217_0001_1_20_H_._HHH_b1_00628_0001_0000400029_0000001_0_0001 (protein)
chain: SSSSDESQELFELIEELVEAHREGDPELVERLAEEAEKLAEELGNRLAKLQIEFIERLAHSSSSS
B10: il10ra_site1_sap_11_mot_HHH_b2_00475_000000002_0001_44_57_H_._HHH_b1_07776_0001_0000100002_0000001_0_0001 (protein)
chain: SSSSDTRELYKALRRVAKLDADGDQEEAERLLEEAERLAEELNDRLFLFNLEHLKEVIERRSSSS
B11: il10ra_site1_normal_mot_HHH_b1_07527_000000076_0001_1_15_H_._HHH_b1_07772_0001_0000200016_0000001_0 (protein)
chain: SSSSSDEVYELLREIMELLREGDEERVRELLEQIEELVKELGNFVFEFSLRVLEEQFERLFSSSS
B12: il10ra_site1_normal_mot_HHH_b1_04015_af2_000000074_0001_1_17_H_._HHH_b2_02734_0001_0000200018_0000002_0 (protein)
chain: SSSSSDLYEEVKEVIKEAIELYRNGNPEEARELLEELLEKVEEAGNPAALFALEHLLRVLSSSSS
B13: il10ra_site1_sap_22_mot_1f0bf248c09923a0581b66a675a8b92c_0001_af2_000000190_0001_52_65_H_._6586f062cc7817236c67ed8004cc3ec0_0001_0001_0000300016_0000001_0_0001 (protein)
chain: SSSSTTAERSIEFALRLAEELLKRGDPEAAELVLKIAEEAARAANNPELLRELEELLEEIRSSSS
B14: il10ra_site1_sap_13_mot_HHH_b2_00943_af2_000000149_0001_1_17_H_._HHH_b1_05738_0001_0000300015_0000001_0_0001 (protein)
chain: SSSSSDREERIEELLEQAERLAEEGNPEEATRLLAEAVRLIFELGDHELLRELWELVHKLSSSSS
B15: il10ra_site1_normal_mot_HHH_b2_02053_af2_000000006_0001_3_19_H_._HHH_b1_00442_0001_0000200013_0000001_0 (protein)
chain: SSSSEEVYKLIRRALELRANGNPEEAEKLLEEALELAEEAGNFSIVFAIEQALKLLRELLSSSSS
B16: il10ra_site1_sap_21_mot_HHH_b1_04693_000000238_0001_19_36_H_._HHH_b1_05760_0001_0000100003_0000001_0_0001 (protein)
chain: SSSSSSDLEELLEELEELVEEGDKERALRLAIELLRLAFRNSDPEILRAVWELVKRLDSSSSSSS
B17: il10ra_site1_sap_8_mot_HHH_b1_07878_000000292_0001_1_19_H_._HHH_b1_06448_0001_0000300043_0000001_0_0001 (protein)
chain: SSSSDLEELVRAALELAEQAEKAGDPRSARWLLKALLEALERNNDPELVREVEELLEEIRGSSSS
B18: il10ra_site1_normal_mot_HHH_b2_07784_af2_000000103_0001_19_36_H_._HHH_b1_06064_af2_0001_0000200006_0000002_0 (protein)
chain: SSSSSYEEVKKLIEQIVELLRRGDRERAKELIEELEELAEELNNPSLKFVVRLLEQALERLSSSS
B19: il10ra_site1_normal_mot_HHH_b2_02053_af2_000000006_0001_3_19_H_._HHH_b2_05958_0001_0000100008_0000001_0 (protein)
chain: SSSSSEETERLYKLSREALEARENGNPEEAQEILEEALEIAEEGNNFNFLFNLRFLLRDLKSSSS
B20: il10ra_site1_normal_mot_HHH_b1_05185_000000011_0001_22_39_H_._HHH_b2_02785_0001_0000100008_0000001_0 (protein)
chain: SSSSDEETQRISEIFVRAARLIVEGDEERVRELIEELERLAEELNDEYAKLSVRFLKLLLNSSSS
B21: il10ra_site1_normal_mot_HHH_b1_05056_000000217_0001_1_20_H_._HHH_b2_06339_0001_0000100003_0000001_0 (protein)
chain: SSSSDYEERVRELLEEAEELLERGNPEEALRLIAEAVRVAYEGKNPEALRLVWEFVEEFASSSSS
B22: il10ra_site1_normal_mot_05afbb9f204b58045f25af15c542ced4_0001_af2_000000154_0001_34_48_H_._HEEHE_2054_0001_0000200009_0000001_0_af2pred_0001 (protein)
chain: SRELAIKYAVERLAEYARLKSVEVEVENNTVTVTVEGDDEAARYVIRAVEVLARLAGIPFEYSTE
B23: il10ra_site1_normal_mot_HHH_b1_05056_000000217_0001_1_20_H_._HHH_b2_06260_0001_0000200013_0000001_0 (protein)
chain: SSSSSEDEEEVEELLEQAKEAAKRDPREAARLLQEATHIALQNQNEELLKEVWEVVKELANSSSS
B24: il10ra_site1_normal_mot_HHH_b2_01649_af2_000000191_0001_40_56_H_._HHH_b1_07449_0001_0000100003_0000001_0 (protein)
chain: SSSSTAEVAFRFHEELAEEALKLGNREEAERILRAAIEALRRLNDEELVEKLEELLEEVRGSSSS

What follows are binders tested against il10ra, Q13651 (assay: yeast display titration).

Apparent Kd, inactive:
B1 no binding seen, B2 no binding seen, B3 no binding seen, B4 no binding seen, B5 no binding seen, B6 no binding seen, B7 no binding seen, B8 no binding seen, B9 no binding seen, B10 no binding seen, B11 no binding seen, B12 no binding seen, B13 no binding seen, B14 no binding seen, B15 no binding seen, B16 no binding seen, B17 no binding seen, B18 no binding seen, B19 no binding seen, B20 no binding seen, B21 no binding seen, B22 no binding seen, B23 no binding seen, B24 no binding seen

Reference: paper PMC10163288
